# In article PMC8432861:
# Protein sequences, listed by entry. Tags and fused reporters are not part of them.
# UniProt P45481: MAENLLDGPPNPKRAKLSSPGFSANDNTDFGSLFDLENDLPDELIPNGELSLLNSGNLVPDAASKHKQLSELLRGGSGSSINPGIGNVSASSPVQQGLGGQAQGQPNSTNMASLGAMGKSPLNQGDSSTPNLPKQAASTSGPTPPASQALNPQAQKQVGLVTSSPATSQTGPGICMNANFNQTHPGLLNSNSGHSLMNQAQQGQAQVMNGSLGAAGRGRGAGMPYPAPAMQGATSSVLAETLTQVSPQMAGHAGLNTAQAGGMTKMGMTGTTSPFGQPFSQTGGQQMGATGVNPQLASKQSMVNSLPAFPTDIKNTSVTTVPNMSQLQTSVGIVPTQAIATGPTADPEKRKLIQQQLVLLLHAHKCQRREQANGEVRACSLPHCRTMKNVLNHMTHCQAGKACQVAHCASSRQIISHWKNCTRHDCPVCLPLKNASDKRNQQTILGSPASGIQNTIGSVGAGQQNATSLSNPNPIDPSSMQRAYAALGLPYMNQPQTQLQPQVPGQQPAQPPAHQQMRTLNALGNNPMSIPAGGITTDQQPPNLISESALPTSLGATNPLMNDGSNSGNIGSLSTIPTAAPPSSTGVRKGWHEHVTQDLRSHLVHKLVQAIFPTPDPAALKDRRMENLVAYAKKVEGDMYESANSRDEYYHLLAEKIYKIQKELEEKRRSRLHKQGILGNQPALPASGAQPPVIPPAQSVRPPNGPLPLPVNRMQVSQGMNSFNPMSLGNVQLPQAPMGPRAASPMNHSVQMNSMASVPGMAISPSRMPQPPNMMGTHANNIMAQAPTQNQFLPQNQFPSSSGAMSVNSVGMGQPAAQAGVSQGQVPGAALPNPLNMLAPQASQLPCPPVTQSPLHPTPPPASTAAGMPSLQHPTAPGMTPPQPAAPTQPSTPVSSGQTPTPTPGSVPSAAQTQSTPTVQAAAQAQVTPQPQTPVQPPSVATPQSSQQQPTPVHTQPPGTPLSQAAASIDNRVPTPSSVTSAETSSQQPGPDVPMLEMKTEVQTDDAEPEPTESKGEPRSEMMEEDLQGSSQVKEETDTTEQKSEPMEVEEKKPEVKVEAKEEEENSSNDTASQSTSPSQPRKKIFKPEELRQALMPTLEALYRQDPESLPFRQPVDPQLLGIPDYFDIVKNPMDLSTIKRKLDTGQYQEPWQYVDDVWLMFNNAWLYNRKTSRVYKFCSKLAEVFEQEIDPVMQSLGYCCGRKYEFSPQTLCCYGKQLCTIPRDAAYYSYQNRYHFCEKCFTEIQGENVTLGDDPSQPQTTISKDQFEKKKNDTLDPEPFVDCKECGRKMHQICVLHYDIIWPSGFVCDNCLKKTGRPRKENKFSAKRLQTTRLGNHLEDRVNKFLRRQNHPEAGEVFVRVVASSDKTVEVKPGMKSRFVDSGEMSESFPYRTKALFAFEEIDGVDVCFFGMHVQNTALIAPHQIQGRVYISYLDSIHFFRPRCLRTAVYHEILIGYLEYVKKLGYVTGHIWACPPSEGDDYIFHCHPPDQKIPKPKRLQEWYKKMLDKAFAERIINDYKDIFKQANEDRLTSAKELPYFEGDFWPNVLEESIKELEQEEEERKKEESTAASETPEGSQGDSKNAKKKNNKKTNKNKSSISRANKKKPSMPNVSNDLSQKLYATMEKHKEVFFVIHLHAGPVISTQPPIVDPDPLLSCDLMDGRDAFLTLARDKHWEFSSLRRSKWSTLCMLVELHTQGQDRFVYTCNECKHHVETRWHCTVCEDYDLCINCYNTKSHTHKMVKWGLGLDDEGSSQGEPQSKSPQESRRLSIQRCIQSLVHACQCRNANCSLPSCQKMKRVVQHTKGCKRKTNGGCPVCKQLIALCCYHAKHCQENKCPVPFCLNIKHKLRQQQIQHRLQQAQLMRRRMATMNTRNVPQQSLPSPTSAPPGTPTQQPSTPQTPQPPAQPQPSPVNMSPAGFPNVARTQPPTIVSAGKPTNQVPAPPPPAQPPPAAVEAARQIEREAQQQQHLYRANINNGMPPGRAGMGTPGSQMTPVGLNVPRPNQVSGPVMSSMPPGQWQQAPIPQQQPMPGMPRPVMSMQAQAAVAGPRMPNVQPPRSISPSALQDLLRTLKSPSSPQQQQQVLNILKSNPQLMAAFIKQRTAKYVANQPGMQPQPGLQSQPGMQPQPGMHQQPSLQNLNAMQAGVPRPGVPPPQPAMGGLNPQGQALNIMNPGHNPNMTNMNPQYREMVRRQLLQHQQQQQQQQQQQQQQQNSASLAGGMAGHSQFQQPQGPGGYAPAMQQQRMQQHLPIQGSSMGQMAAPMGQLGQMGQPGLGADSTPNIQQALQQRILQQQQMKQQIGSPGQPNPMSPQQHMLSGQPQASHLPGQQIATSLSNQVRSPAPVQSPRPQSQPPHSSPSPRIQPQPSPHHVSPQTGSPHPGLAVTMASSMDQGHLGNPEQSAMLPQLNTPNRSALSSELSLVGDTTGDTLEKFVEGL
# UniProt Q13568: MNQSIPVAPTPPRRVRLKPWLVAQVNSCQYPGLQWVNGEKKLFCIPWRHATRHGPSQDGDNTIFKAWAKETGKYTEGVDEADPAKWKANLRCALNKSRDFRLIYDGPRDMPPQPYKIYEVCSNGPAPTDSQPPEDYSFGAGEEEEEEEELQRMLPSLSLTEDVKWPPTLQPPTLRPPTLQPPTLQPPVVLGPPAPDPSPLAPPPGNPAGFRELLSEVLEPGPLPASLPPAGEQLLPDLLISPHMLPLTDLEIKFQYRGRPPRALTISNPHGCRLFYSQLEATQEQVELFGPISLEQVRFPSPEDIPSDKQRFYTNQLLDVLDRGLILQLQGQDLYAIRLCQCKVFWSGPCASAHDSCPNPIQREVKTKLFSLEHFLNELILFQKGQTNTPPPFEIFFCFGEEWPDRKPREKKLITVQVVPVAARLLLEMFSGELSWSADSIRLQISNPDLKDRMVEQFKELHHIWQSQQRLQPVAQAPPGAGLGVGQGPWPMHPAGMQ
# Residue numbers refer to the chain shown, from its start. No constants are given. Whether binding was seen depends on the method and setting. In cells and extracts the contact can be indirect. Some entries that bind do so weakly or less than the wild type. Where a sequence is shown, tags or fusion partners need not be part of it.
# What was measured:
# [1] = biological target: T1, FLAG-Myc-tagged murine IRF7 K3R mutant (K398R, K400R, K406R) (murine) (UniProt P70434); test: co-IP; HEK-293T transfected with expression vectors for 24 h, then infected with SeV for 6 h or left untreated; IP lysis buffer (10mM Tris-HCl, pH 7.5, 2mM EDTA, 1% NP40, 150mM NaCl); immunoblot
# T1 sequence: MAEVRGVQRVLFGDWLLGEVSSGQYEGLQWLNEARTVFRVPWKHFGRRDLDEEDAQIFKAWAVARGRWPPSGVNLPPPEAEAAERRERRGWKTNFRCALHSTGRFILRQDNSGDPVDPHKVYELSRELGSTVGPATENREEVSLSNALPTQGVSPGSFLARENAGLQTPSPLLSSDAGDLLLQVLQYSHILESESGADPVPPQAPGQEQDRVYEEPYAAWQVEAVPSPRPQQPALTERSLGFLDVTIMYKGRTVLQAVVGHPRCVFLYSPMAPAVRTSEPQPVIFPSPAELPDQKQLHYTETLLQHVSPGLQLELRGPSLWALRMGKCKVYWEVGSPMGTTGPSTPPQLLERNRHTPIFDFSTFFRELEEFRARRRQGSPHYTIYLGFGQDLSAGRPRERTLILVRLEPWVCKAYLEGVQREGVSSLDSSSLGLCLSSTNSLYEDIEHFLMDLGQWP
# [2] = biological target: T2, FLAG-Myc-tagged murine IRF7 WT (murine) (UniProt P70434); test: as above
# T2 sequence: T1 sequence with R398K, R400K, R406K
binding [1],binding [2],Substance
binds,binds,FLAG-tagged murine CBP (from UniProt P45481 1-2441)
binds,binds,FLAG-tagged human IRF5 (from UniProt Q13568 1-498)
